# Source: PubChem BioAssay AID228 (DTP/NCI, 2004)
# The list does not hold the whole screen: it covers a few groups of compounds. Not every dose and run of a compound is shown. T/C: endpoint of the treated group in % of that of the vehicle group. Some T/C values are marked as having no survivor count here; that says nothing about deaths at the dose. Schedule codes are those of the source, read here as Q, the interval in days (D) or hours (H), X, the number of doses.
# Tested on: BDF1 mice, Friend leukemia sc, tumor weight T/C
# Test: NCI In Vivo Anticancer Drug Screen. Data for tumor model Friend Virus Leukemia (Solid) (subcutaneous) in B6D2F1 (BDF1) mice
# Details: T/C endpoint: mean tumor weight, schedule: Q01DX011 (ip), evaluation day not shown, higher T/C = larger tumour
# Method: The antitumor activity of compounds was measured in mice bearing transplantable tumors. Survival or tumor size were measured and the results are expressed as the measurement made in the treated group (T) divided by the measurement made in the vehicle treated control group (C). The tumor model used in this assay is Friend Virus Leukemia (Solid) (subcutaneous) in B6D2F1 (BDF1) mice
smiles,measurement,setting,value
ClCCCCC(CCl)NCCCl (configuration not stated),T/C,"dose: 1.0 mg/kg/injection, vehicle: saline",88 % of control [survivor count not shown]
same,T/C,"dose: 2.0 mg/kg/injection, vehicle: saline",121 % of control [survivor count not shown]
same,T/C,"dose: 4.0 mg/kg/injection, vehicle: saline",102 % of control [survivor count not shown]
same,T/C,"dose: 8.7 mg/kg/injection, vehicle: saline",57 % of control [survivor count not shown]
same,T/C,"dose: 9.0 mg/kg/injection, vehicle: saline",58 % of control [survivor count not shown]
same,T/C,"dose: 17.5 mg/kg/injection, vehicle: saline",46 % of control [survivor count not shown]
same,T/C,"dose: 35.0 mg/kg/injection, vehicle: saline",25 % of control [survivor count not shown]
Cc1cc2nc(CN(CCCl)CCCl)[nH]c2cc1C,T/C,"dose: 15.0 mg/kg/injection, vehicle: carboxymethylcellulose (CMC)",82 % of control [survivor count not shown]
same,T/C,"dose: 30.0 mg/kg/injection, vehicle: carboxymethylcellulose (CMC)",96 % of control [survivor count not shown]
same,T/C,"dose: 60.0 mg/kg/injection, vehicle: carboxymethylcellulose (CMC)",67 % of control [survivor count not shown]
COCc1c(CN(CCCl)CCCl)cnc(C)c1O,T/C,"dose: 3.75 mg/kg/injection, vehicle: saline",108 % of control [survivor count not shown]
same,T/C,"dose: 7.5 mg/kg/injection, vehicle: saline",52 % of control [survivor count not shown]
